Laboratory results taken from paper PMC4944948.
These are yes or no findings as the source states them, for the method shown. Binding seen in cells or lysates may run through a third protein. Some results given as binding are weak or reduced against the parent protein; the word gives no strength. Tags and fused reporters may be left off the sequences shown.

Chains of the proteins cited; added tags and fusions are not shown.
UniProt Q13285: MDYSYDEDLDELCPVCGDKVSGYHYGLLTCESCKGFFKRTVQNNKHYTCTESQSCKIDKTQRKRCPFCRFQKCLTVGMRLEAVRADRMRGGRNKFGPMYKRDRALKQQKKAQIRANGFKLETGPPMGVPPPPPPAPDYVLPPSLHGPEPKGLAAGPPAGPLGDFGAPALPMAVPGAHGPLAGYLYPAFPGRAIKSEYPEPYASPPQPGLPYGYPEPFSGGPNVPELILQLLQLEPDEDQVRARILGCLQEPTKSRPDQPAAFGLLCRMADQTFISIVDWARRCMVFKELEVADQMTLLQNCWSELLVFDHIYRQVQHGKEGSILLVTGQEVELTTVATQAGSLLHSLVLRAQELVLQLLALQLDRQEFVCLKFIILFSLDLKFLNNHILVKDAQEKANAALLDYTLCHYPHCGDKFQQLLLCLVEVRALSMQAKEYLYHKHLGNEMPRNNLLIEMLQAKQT

Target: FLAG-tagged steroidogenic factor-1 (SF-1) (UniProt Q13285)
Assay: co-IP; KGN cells co-transfected with FLAG-SF-1 and Myc-tagged WT or mutant FOXL2, 24 h; cell lysates immunoprecipitated with anti-FLAG antibody on protein G Dynabeads; immunoblot

binding: binds
B1: Myc-tagged wild type FOXL2 (protein, UniProt P58012 1-376)
chain: MMASYPEPEDAAGALLAPETGRTVKEPEGPPPSPGKGGGGGGGTAPEKPDPAQKPPYSYVALIAMAIRESAEKRLTLSGIYQYIIAKFPFYEKNKKGWQNSIRHNLSLNECFIKVPREGGGERKGNYWTLDPACEDMFEKGNYRRRRRMKRPFRPPPAHFQPGKGLFGAGGAAGGCGVAGAGADGYGYLAPPKYLQSGFLNNSWPLPQPPSPMPYASCQMAAAAAAAAAAAAAAGPGSPGAAAVVKGLAGPAASYGPYTRVQSMALPPGVVNSYNGLGGPPAAPPPPPHPHPHPHAHHLHAAAAPPPAPPHHGAAAPPPGQLSPASPATAAPPAPAPTSAPGLQFACARQPELAMMHCSYWDHDSKTGALHSRLDL
